Residue numbers refer to the chain shown, from its start. In names and notes the source's numbering stands. Results are given in words; binding and its absence hold for the method and conditions named. Some binding calls cover weakened binding; strength is not graded here.

Test [1] has as its target cynomolgus monkey PD-L2 (full-length, on cells) (cynomolgus monkey). Kind of test: FACS on HEK293 cells stably expressing full-length monkey PD-L2, 0.5 µg/ml antibody.
Test [2] has the same target. Description: FACS on HEK293T cells expressing cynomolgus PD-L2.

B1: 10D1-G1 (antibody, V domains shown)
VH: QVQLQESGPGLVKPSGTLSLTCAVSGGSISSSYWWSWVRQPPGKGLEWIGEIFHIGSTNYNPSLRSRVTISVVKSKNQFSLNLNSVTAADTAVYFCARVSGGYGYFSGMDVWGQGTTVTVSS
VL: DIQMTQSPSSLSASVGDRVTITCRASQGIRNDLGWYQQKPGKAPKRLIYGASSLQSGVPSRFSGSGSGTEFTLTISSLQPEDFATYYCLQHNSYPRTFGQGTKVEIK
notes: Both formats under this entry
With B1, in test [1], the binding entry is reported as “binds”.

B2: 10A9-D2 (antibody, V domains shown)
VH: QVQLQESGPGLVKPSETLSLTCAVSGGSISSSYWWSWVRQPPGKGLEWVGEVFHVGVTNYNPSLKSRVTISVDKSKNQFSLKLTSVTAADTAVYYCARVTGTTGYYHGLDVWGQGTTVTVFS
VL: B1 VL with A43V, G50A, V58I, S93N
notes: Both formats under this entry
In the case of B2, the binding entry in test [1] is “binds”.

B3: 10A9-D2 N31Q.LC (antibody, V domains shown)
VH: B2 VH
VL: B1 VL with N31Q, A43V, G50A, V58I, S93N
notes: Optimized variant of 10A9-D2
Turning to B3, the binding result in test [2] is on record as “binds”.

B4: 10D1-G1 N31Q.N92Q.LC (antibody, V domains shown)
VH: B1 VH
VL: B1 VL with N31Q, N92Q
notes: Optimized variant of 10D1-G1; also called 10D1-G1 N31Q.N920.LC
For B4, the binding entry in test [2] was “binds”.

B5: 12A1-D4 (antibody, V domains shown)
VH: QVQLQESGPGLVKPSGTLSLTCAVSGGSISSNNWWSWVRQPPGKGLEWIGEIFHVGSTNYNPSLKSRVTISVDKSKNQFSLKLSSLTAADTAVYYCARMVGATGHYYGMDVWGQGTTVTVSS
VL: DIQLTQSPSFLSASVGDRVTITCRASQGISSSLAWYQQKPGKAPKFLIYAASTLQSGVPSRFSGSGSGTEFTLTISSLQPEDFATYYCQQLNSYPKSWTFGQGTKVEIK
notes: Both formats under this entry
As for B5, the binding entry in test [1] was “binds”.

B6: 8B5-B1 (antibody, V domains shown)
VH: EVQLLESGGGLVQPGGSLKLSCAASGFTFSSYAMFWVRQAPGEGLAWVSAITGSGDHTYYADSVKDHFTISRDNSKNTLYLQMNSLKAEDTAVYYCAKDASGNSYGFPYWYFDLWGRGTLVTVSS
VL: QSALTQPASVSGSPGQSITISCTGTSSDVAGYNFVSWYQHHPGKTPKLMIYDVTNRPSGVSTRFSGSKSGNTASLTISGLQAEDEADYYCSSFTSATTLVFGGGTKLTVLG
notes: Both formats under this entry
With B6, in test [1], the binding entry is given as “binds”.

B7: 11C11-H5 (antibody, V domains shown)
VH: QVQLVESGGGVVQPGRSLRLSCAASGFAFSAYGMHWVRQAPGKGLEWVAISWYDGSNNYHADSVKGRFTISRDSSKNTLYLQMNSLRAEDTAVYYCAKSIGVARHYYYGMDVWGQGTTVTVSS
VL: SYELTQPPSVSVSPGQTASITCSGEELGDKYACWYQQKPGQSPVLVIYQDSKRPSGIPERFSGSNSGNAATLTISGTQAMDEADYYCQAWDSITVVFGGGTKLTVLG
notes: Both formats under this entry
For the molecule B7, the binding result in test [1] is listed as “binds”.

B8: 19C3-B3 (antibody, V domains shown)
VH: B7 VH
VL: B7 VL with V44L, V96I
notes: Both formats under this entry; also called 19C3-C3
For B8, the binding result in test [1] is on record as “binds”.

B9: 1A1-C2 (antibody, V domains shown)
VH: QVQLQESGPGLVKPSGTLSLTCAVSGGSIGSSYWWTWIRQSPGKGLEWIGEIFHSGPTNYTPSLKSRVTISVDKSKNQFSLQLRSVTAADTAVYYCARTTGTTGFYYGMDVWGQGTTVTVSS
VL: EVVLTQSPATLYVTPGERVTLSCRASQSVSSNLAWYQQKPGQAPRLLIYGASTRATGIPARFSGSGSGTEFTLTISSLQSEDFAVYYCQQFNNWPRTFGLGTKVEIT
Turning to B9, the binding entry in test [1] is given as “binds”.

B10: 7H5-C5 (antibody, V domains shown)
VH: QVQLVESGGGLVKPGGSLRLSCAASGFSLSDYYMSWTRQAPGRGLEWVSFISSSGSTIYYVDSVKGRFTISRDHAKNSLYLQINSLRAEDTAVYYCARAQWLPDFDYWGQGTLVTVSS
VL: QSALTQPPSASGSPGQSVTISCTGTSSDVSGYNYVSWYQHHPDKAPKLLIYEVNKRPSGVPARFSGSKSGNTASLTVSGLQAEDEADYYCTSFADNNNVVFGGGTKLTVLG
notes: Both formats under this entry
B10: in test [1], the binding result was “binds”.

B11: 9A3-C7 (antibody, V domains shown)
VH: B10 VH with T37I, F50Y, H74N, Y95H
VL: B10 VL with S30G, D43G, A45V, L49M, N54S, A62D, V100G
notes: Both formats under this entry
As to B11, the binding result in test [1] was “binds”.

B12: 2C4-E4 (antibody, V domains shown)
VH: QVQLVQSGAEVKKPGASVKVSCKASGYTFTGYVMHWVRQAPGQRLEWMGWINADNGITKYSQKFQGRVTITRDTSASTAYMELTNLRSEDTAVYYCARATRGFGEFYFDYWGQGNLVTVSS
VL: DIQMTQSPSTLSASVGDRVTITCRASQTISSWLAWYQQKPGKAPNLLIYKASSLESGVPSRFSGSGSGTEFTLTISSLQPDDFATYYCQQYYSYWTFGQGTKVEIK
notes: Both formats under this entry
On to B12, for which the binding entry in test [1] is recorded as “binds”.

B13: 19B3-B3 M23K.M63L.HC (antibody, V domains shown)
VH: QVQLVQSGAEVKKPGASVKVSCKASGYTFTNYAIHWVRQAPGQRLEWMGWINTGLGKPKYSQLFQDRVTITRDTSASTASMELSGLRSDDTAVYYCARVGWELYFDYWGQGTLVTVSS
VL: B12 VL with T28S, W32L, N45K, Y87F, Y92N
notes: Optimized variant of 19B3-B3
Turning to B13, the binding entry in test [2] is “binds”.

B14: 19B3-B3 N92Y.LC.M23K.M63L.HC (antibody, V domains shown)
VH: B13 VH
VL: B12 VL with T28S, W32L, N45K, Y87F
notes: Optimized variant of 19B3-B3
Consider B14, for which the binding entry in test [2] is reported as “binds”.

B15: 19B3-B3 (antibody, V domains shown)
VH: B13 VH with K23M, L63M
VL: B12 VL with T28S, W32L, N45K, Y87F, Y92N
notes: Both formats under this entry
Turning to B15, the binding entry in test [1] is on record as “binds”.

B16: 19B3-B3 N92Q.LC.M23K.M63L.HC (antibody, V domains shown)
VH: B13 VH
VL: B12 VL with T28S, W32L, N45K, Y87F, Y92Q
notes: Optimized variant of 19B3-B3
B16: the binding result in test [2] is reported as “binds”.

These data come from patent US20200369772A1 (ABBA THERAPEUTICS, published 2020).
